Substitutions are numbered along the chain they refer to. The exact form of at least one protein or probe is not confirmed. At least one verdict rests on a figure or table, not on a statement of the authors. Where a protein sequence is shown, tags need not be part of it.
Key:
Assay in all cases: EMSA
Details in all cases: 0.3 uM protein, 0.6 uM RNA; EMSA: 20 mM Tris-HCl pH 7.5, 100 mM NaCl, 5% glycerol, 1 mM DTT, 4 C, 1 h; 0.3 uM RNA with 0-1.2 uM protein unless noted; 6% TBE native gel; recombinant protein; residues 24-513; protein details: His6-SUMO removed by ULP1; label: none (SYBR Gold stain)
[1] = target: T1, ZCCHC4 Y173A (human) (UniProt Q9H5U6)
T1 sequence (looked up): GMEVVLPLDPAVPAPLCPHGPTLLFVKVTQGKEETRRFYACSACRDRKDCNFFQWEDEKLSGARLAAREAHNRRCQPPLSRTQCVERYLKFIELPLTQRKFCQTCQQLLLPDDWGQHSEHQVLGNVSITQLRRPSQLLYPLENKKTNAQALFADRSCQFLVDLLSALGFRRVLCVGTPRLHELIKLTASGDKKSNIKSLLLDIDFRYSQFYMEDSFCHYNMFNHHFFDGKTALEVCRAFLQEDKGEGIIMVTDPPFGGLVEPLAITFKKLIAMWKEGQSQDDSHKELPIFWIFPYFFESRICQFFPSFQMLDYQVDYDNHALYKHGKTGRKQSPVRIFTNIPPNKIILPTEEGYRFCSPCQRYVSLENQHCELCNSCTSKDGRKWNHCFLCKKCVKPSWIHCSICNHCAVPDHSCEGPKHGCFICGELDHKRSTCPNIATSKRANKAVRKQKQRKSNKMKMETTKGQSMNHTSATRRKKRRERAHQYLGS

[2] = target: T2, ZCCHC4 Y318A (human) (UniProt Q9H5U6)
T2 sequence (looked up): T1 sequence (looked up) with A150Y, Y295A

[3] = target: T3, ZCCHC4 R323A (human) (UniProt Q9H5U6)
T3 sequence (looked up): T1 sequence (looked up) with A150Y, R300A

[4] = target: T4, ZCCHC4 F76A (human) (UniProt Q9H5U6)
T4 sequence (looked up): T1 sequence (looked up) with F53A, A150Y

[5] = target: T5, ZCCHC4 F319A (human) (UniProt Q9H5U6)
T5 sequence (looked up): T1 sequence (looked up) with A150Y, F296A

Measured: binding result

CGGUACACCUGUCAAACGGUAACGCAGGUG [30-mer 28S rRNA]
binds: [1] | [2] | [3] | [4] | [5]

Source: paper PMC6834594, “Structure and regulation of ZCCHC4 in m^6A-methylation of 28S rRNA” (Nature Communications, 2019)
